# The other results are listed elsewhere or left out.
# What was measured:
# Experiment in all cases: glycan array binding signal (z-score within array); higher = stronger binding
# Settings in all cases: glycan notation: IUPAC condensed, linker removed
# Fuc(a1-2)[Gal(a1-3)]Gal = biological target: Fuc(a1-2)[Gal(a1-3)]Gal
# How it was run: (§1)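 Arrays were curated from the Consortium for Functional Glycomics database, 3228 in total, and kept only where the protein sequence was available. Binding is expressed as a within-array Z-score. This score was averaged across arrays of the same protein sequence at different concentrations or buffers and across linkers, and negative values can be read as non-binding.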
# [1] = biological target: Fuc(a1-2)[Gal(a1-3)]Gal(b1-3)GlcNAc
# How it was run: as §1
# [2] = biological target: Fuc(a1-2)[Gal(a1-3)]Gal(b1-3)GlcNAc(b1-2)Man(a1-3)[Fuc(a1-2)[Gal(a1-3)]Gal(b1-3)GlcNAc(b1-2)Man(a1-6)]Man(b1-4)GlcNAc(b1-4)GlcNAc
# How it was run: as §1
# [3] = biological target: Fuc(a1-2)[Gal(a1-3)]Gal(b1-4)Glc
# How it was run: as §1
# [4] = biological target: Fuc(a1-2)[Gal(a1-3)]Gal(b1-4)GlcNAc
# How it was run: as §1
# [5] = biological target: Fuc(a1-2)[Gal(a1-3)]Gal(b1-4)GlcNAc(b1-2)Man(a1-3)[Fuc(a1-2)[Gal(a1-3)]Gal(b1-4)GlcNAc(b1-2)Man(a1-6)]Man(b1-4)GlcNAc(b1-4)GlcNAc
# How it was run: as §1
# [6] = biological target: Fuc(a1-2)[Gal(a1-3)]Gal(b1-4)[Fuc(a1-3)]GlcNAc
# How it was run: as §1
# [7] = biological target: Fuc(a1-2)[Gal(a1-4)]Gal(b1-4)GlcNAc
# How it was run: as §1
# [8] = biological target: Fuc(a1-2)[GalNAc(a1-3)]Gal
# How it was run: as §1
# [9] = biological target: Fuc(a1-2)[GalNAc(a1-3)]Gal(b1-3)GalNAc(a1-3)[Fuc(a1-2)]Gal(b1-4)GlcNAc
# How it was run: as §1
# [10] = biological target: Fuc(a1-2)[GalNAc(a1-3)]Gal(b1-3)GlcNAc
# How it was run: as §1
# [11] = biological target: Fuc(a1-2)[GalNAc(a1-3)]Gal(b1-3)GlcNAc(b1-2)Man(a1-3)[Fuc(a1-2)[GalNAc(a1-3)]Gal(b1-3)GlcNAc(b1-2)Man(a1-6)]Man(b1-4)GlcNAc(b1-4)GlcNAc
# How it was run: as §1
# [12] = biological target: Fuc(a1-2)[GalNAc(a1-3)]Gal(b1-4)Glc
# How it was run: as §1
# [13] = biological target: Fuc(a1-2)[GalNAc(a1-3)]Gal(b1-4)GlcNAc
# How it was run: as §1
# [14] = biological target: Fuc(a1-2)[GalNAc(a1-3)]Gal(b1-4)GlcNAc(b1-2)Man(a1-3)[Fuc(a1-2)[GalNAc(a1-3)]Gal(b1-4)GlcNAc(b1-2)Man(a1-6)]Man(b1-4)GlcNAc(b1-4)GlcNAc
# How it was run: as §1
# [15] = biological target: Fuc(a1-2)[GalNAc(a1-3)]Gal(b1-4)GlcNAc(b1-3)Gal(b1-4)GlcNAc
# How it was run: as §1
# [16] = biological target: Fuc(a1-2)[GalNAc(a1-3)]Gal(b1-4)GlcNAc(b1-3)Gal(b1-4)GlcNAc(b1-3)Gal(b1-4)GlcNAc
# How it was run: as §1
# [17] = biological target: Fuc(a1-2)[GalNAc(a1-3)]Gal(b1-4)[Fuc(a1-3)]GlcNAc
# How it was run: as §1
# [18] = biological target: Fuc(a1-2)[GalNAc(a1-4)]Gal(b1-4)GlcNAc
# How it was run: as §1
# [19] = biological target: Fuc(a1-2)[GalNAc(b1-3)]Gal
# How it was run: as §1
# Fuc(a1-3)GlcNAc = biological target: Fuc(a1-3)GlcNAc
# How it was run: as §1
# [20] = biological target: Fuc(a1-3)[Gal(b1-4)]Glc6S
# How it was run: as §1
# [21] = biological target: Fuc(a1-3)[Gal(b1-4)]GlcNAc
# How it was run: as §1
# [22] = biological target: Fuc(a1-3)[Gal(b1-4)]GlcNAc(b1-2)Man(a1-3)[Fuc(a1-3)[Gal(b1-4)]GlcNAc(b1-2)Man(a1-6)]Man(b1-4)GlcNAc(b1-4)GlcNAc
# How it was run: as §1
# [23] = biological target: Fuc(a1-3)[Gal(b1-4)]GlcNAc(b1-3)Gal(b1-3)[Fuc(a1-4)]GlcNAc
# How it was run: as §1
# [24] = biological target: Fuc(a1-3)[Gal(b1-4)]GlcNAc(b1-3)GalNAc
# How it was run: as §1
# [25] = biological target: Fuc(a1-3)[Gal(b1-4)]GlcNAc(b1-4)Gal(b1-4)[Fuc(a1-3)]GlcNAc
# How it was run: as §1
# [26] = biological target: Fuc(a1-3)[Gal(b1-4)]GlcNAc(b1-4)Gal(b1-4)[Fuc(a1-3)]GlcNAc(b1-4)Gal(b1-4)[Fuc(a1-3)]GlcNAc
# How it was run: as §1
# [27] = biological target: Fuc(a1-3)[Gal(b1-4)]GlcNAc(b1-6)[Gal(b1-3)GlcNAc(b1-3)]Gal(b1-4)Glc
# How it was run: as §1
# [28] = biological target: Fuc(a1-3)[Gal(b1-4)]GlcNAc6S
# How it was run: as §1
# [29] = biological target: Fuc(a1-3)[Gal3S(b1-4)]GlcNAc
# How it was run: as §1
# [30] = biological target: Fuc(a1-3)[Gal3S(b1-4)]GlcNAc6S
# How it was run: as §1
# [31] = biological target: Fuc(a1-3)[GalNAc(b1-4)]GlcNAc
# How it was run: as §1
# Fuc(a1-4)GlcNAc = biological target: Fuc(a1-4)GlcNAc
# How it was run: as §1
# Fuc(b1-3)GlcNAc = biological target: Fuc(b1-3)GlcNAc
# How it was run: as §1
# Gal(a1-2)Gal = biological target: Gal(a1-2)Gal
# How it was run: as §1
# Gal(a1-3)Gal = biological target: Gal(a1-3)Gal
# How it was run: as §1
binder,measurement,setting,value
"SRS2 (Toxoplasma gondii), O15695 (protein) MATRASLARQKTGAACLAVLTASPSVVAAKPWKRWVGVSVILASAFAVGVSAGPPYRYEPEKFTCRPKKGILSQWVSLLYQVQHNITFACEEATPVPTTLISEEHGLMVCAENMTPEECEANPAPLSAFLPGATKEWVTGDSVLTGLKISVPESQYPANAKSFRVGCRHNTKTGNTCMLTIHVEPRDPAVERQEARCSYTENSTLPKIFVTKDSNTMTLACGPHGAPMPESYTENYCSTPDTCDEKPFTSVIPGYLSKWFFGDPKSPLGARVRIPPEQIPSSPQINYFGCTGPTEGEGPKYNCTVPVPLGGGDPSEGSRPGGGSGGGKRGGGQGGGGSLAGFDFRQGSARHSLPSRMALSASALLAMTALAY",glycan array binding signal (z-score),Fuc(a1-2)[Gal(a1-3)]Gal,0.029
same,glycan array binding signal (z-score),[1],-0.586
same,glycan array binding signal (z-score),[2],-0.83
same,glycan array binding signal (z-score),[3],-0.233
same,glycan array binding signal (z-score),[4],-0.294
same,glycan array binding signal (z-score),[5],0.098
same,glycan array binding signal (z-score),[6],0.068
same,glycan array binding signal (z-score),[7],-0.255
same,glycan array binding signal (z-score),[8],0.017
same,glycan array binding signal (z-score),[9],0.472
same,glycan array binding signal (z-score),[10],0.735
same,glycan array binding signal (z-score),[11],-0.13
same,glycan array binding signal (z-score),[12],-0.13
same,glycan array binding signal (z-score),[13],0.698
same,glycan array binding signal (z-score),[14],1.07
same,glycan array binding signal (z-score),[15],0.358
same,glycan array binding signal (z-score),[16],0.391
same,glycan array binding signal (z-score),[17],0.593
same,glycan array binding signal (z-score),[18],-0.836
same,glycan array binding signal (z-score),[19],0.074
same,glycan array binding signal (z-score),Fuc(a1-3)GlcNAc,0.522
same,glycan array binding signal (z-score),[20],-0.341
same,glycan array binding signal (z-score),[21],-0.537
same,glycan array binding signal (z-score),[22],0.213
same,glycan array binding signal (z-score),[23],0.945
same,glycan array binding signal (z-score),[24],0.176
same,glycan array binding signal (z-score),[25],-0.27
same,glycan array binding signal (z-score),[26],-0.821
same,glycan array binding signal (z-score),[27],-0.834
same,glycan array binding signal (z-score),[28],0.562
same,glycan array binding signal (z-score),[29],0.388
same,glycan array binding signal (z-score),[30],-0.197
same,glycan array binding signal (z-score),[31],0.377
same,glycan array binding signal (z-score),Fuc(a1-4)GlcNAc,-0.086
same,glycan array binding signal (z-score),Fuc(b1-3)GlcNAc,0.872
same,glycan array binding signal (z-score),Gal(a1-2)Gal,-0.741
same,glycan array binding signal (z-score),Gal(a1-3)Gal,-0.417

# A section taken from the entries so far:
binder,measurement,setting,value
"SRS2 (Toxoplasma gondii), O15695 (protein) MATRASLARQKTGAACLAVLTASPSVVAAKPWKRWVGVSVILASAFAVGVSAGPPYRYEPEKFTCRPKKGILSQWVSLLYQVQHNITFACEEATPVPTTLISEEHGLMVCAENMTPEECEANPAPLSAFLPGATKEWVTGDSVLTGLKISVPESQYPANAKSFRVGCRHNTKTGNTCMLTIHVEPRDPAVERQEARCSYTENSTLPKIFVTKDSNTMTLACGPHGAPMPESYTENYCSTPDTCDEKPFTSVIPGYLSKWFFGDPKSPLGARVRIPPEQIPSSPQINYFGCTGPTEGEGPKYNCTVPVPLGGGDPSEGSRPGGGSGGGKRGGGQGGGGSLAGFDFRQGSARHSLPSRMALSASALLAMTALAY",glycan array binding signal (z-score),[14],1.07
same,glycan array binding signal (z-score),[15],0.358
